Source: PMC4154725

T1: VE-cadherin (mouse (endogenous in MyEnd)) (UniProt P55284)
T1 sequence: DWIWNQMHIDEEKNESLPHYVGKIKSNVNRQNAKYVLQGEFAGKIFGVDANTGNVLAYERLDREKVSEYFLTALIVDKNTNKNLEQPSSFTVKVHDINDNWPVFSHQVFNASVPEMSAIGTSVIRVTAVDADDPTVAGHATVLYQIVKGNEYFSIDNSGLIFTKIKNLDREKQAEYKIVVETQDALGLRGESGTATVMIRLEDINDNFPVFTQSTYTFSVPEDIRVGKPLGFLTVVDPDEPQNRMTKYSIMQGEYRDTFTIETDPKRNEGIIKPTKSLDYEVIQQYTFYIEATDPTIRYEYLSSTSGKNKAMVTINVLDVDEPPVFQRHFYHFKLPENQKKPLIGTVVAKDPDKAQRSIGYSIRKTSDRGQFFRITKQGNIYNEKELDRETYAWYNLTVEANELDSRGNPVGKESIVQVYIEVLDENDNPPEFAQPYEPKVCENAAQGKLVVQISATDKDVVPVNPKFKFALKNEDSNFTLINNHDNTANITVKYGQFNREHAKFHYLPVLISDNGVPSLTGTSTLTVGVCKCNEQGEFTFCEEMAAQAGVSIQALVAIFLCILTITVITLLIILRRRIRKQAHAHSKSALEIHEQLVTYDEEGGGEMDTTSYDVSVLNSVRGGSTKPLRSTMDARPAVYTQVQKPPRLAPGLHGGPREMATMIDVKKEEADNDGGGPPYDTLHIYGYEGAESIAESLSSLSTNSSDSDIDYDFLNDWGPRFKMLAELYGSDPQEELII

B1: VE-cadherin (protein, UniProt P55284 46-784)
chain: T1 sequence

Tests used:
[1] = molecular target: T1, VE-cadherin (mouse (endogenous in MyEnd)); experiment: co-IP; MyEnd lysate (0.5% Nonidet-40, 10 mM HEPES pH 7.9, 1.5 mM MgCl2, 10 mM KCl, 5 mM EDTA); IP with goat anti-VE-cadherin antibody and Protein G Plus-Agarose, 4°C; Western blot; control IP with beads, no antibody
[2] = molecular target: PKA regulatory subunit II (RII) alpha (mouse (endogenous in MyEnd)); experiment: co-IP; MyEnd lysate (0.5% Nonidet-40, 10 mM HEPES pH 7.9, 1.5 mM MgCl2, 10 mM KCl, 5 mM EDTA); IP with rabbit anti-PKA antibody and Protein G Plus-Agarose, 4°C; Western blot; control IP with beads, no antibody; also from cells treated with TAT-Ahx-mhK77, TAT-Ahx-AKAPis or F/R (forskolin/rolipram)

| binding [1] | binding [2] | Molecule |
| --- | --- | --- |
| binds |  | PKA regulatory subunit II (RII) alpha (mouse (endogenous in MyEnd)) |
|  | binds | B1 |

These are yes or no findings as the source states them, for the method shown. In cells and extracts the contact can be indirect. A result given as binding can be weak or reduced; the word gives no strength.
